PubChem BioAssay AID1224826 – NIAID, 2016
Aim: 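Regulators of Tlr4 signalling leading to Tnf-alpha expression in macrophages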 (primary screen). Cells: RAW264.7 G9 macrophages from mouse bearing reporters for p65 (GFP) and the Tnf promoter (mCherry). Knock-down reagent: siRNA pool against mouse genes, 100 nM. Timing: 16 h of LPS stimulation, after 2 days of siRNA transfection. Conditions: bacterial lipopolysaccharide (Salmonella minnesota R595), 10 ng/ml. Detection: 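Nuclear mCherry signal of the Tnf promoter reporter measured by imaging after background removal, scaled to each plate median and turned into robust z-scores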. Direction: Tnf reporter robust z-score: higher = stronger Tnf promoter reporter signal after LPS; Tnf reporter intensity: higher = stronger Tnf promoter reporter signal. Rule for the call: 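Called active when robust z-score is at most -1.3, matching the median of the Tlr4 knock-down control, or over 3; control wells and wells with under 50 cells never active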. Calls: active = Tnf reporter clearly lowered or raised; inactive = no clear change in Tnf reporter.
In all, the deposit lists about 17,000 reagents; below is an unselected part. About 1,110 of all reagents (6.6%) were called active. 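Active means lowered or raised reporter signal; replicate intensities are raw and not normalised per plate.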 Further read-outs or replicates are left out here.

The opening 3 records as a preview:
Gene,Tnf reporter robust z-score,fewer than 50 cells in well,"Tnf reporter intensity, replicate 1",Outcome
Zfp12,0.71,enough cells in well,122,inactive
Acss3,-0.03,enough cells in well,136,inactive
Fam167a,-1.52,enough cells in well,76.8,active

The listing, from the first entry:
Gene,Tnf reporter robust z-score,fewer than 50 cells in well,"Tnf reporter intensity, replicate 1",Outcome
Zfp12,0.71,enough cells in well,122,inactive
Acss3,-0.03,enough cells in well,136,inactive
Fam167a,-1.52,enough cells in well,76.8,active
Cckar,-0.61,enough cells in well,209,inactive
Edn3,-0.88,enough cells in well,185,inactive
Vmn1r22,0.82,enough cells in well,150,inactive
Nr5a2,0.66,enough cells in well,336,inactive
Pdgfd,-0.91,enough cells in well,114,inactive
Kifbp,-0.09,enough cells in well,189,inactive
Rmp24,0.06,enough cells in well,273,inactive
Nr5a1,0.12,enough cells in well,259,inactive
Abraxas2,1.33,enough cells in well,180,inactive
Or13p5,0.85,enough cells in well,242,inactive
Klhl36,-0.3,enough cells in well,181,inactive
Or52b1,1.38,enough cells in well,120,inactive
Kcnb1,0.62,enough cells in well,279,inactive
C1qtnf1,0.54,enough cells in well,132,inactive
Mavs,0.99,enough cells in well,267,inactive
Hcn3,0.25,enough cells in well,257,inactive
Mrpl20,0.45,enough cells in well,145,inactive
Ephb4,0.48,enough cells in well,224,inactive
Mpv17l,0.66,enough cells in well,308,inactive
4930555G01Rik,,fewer than 50 cells per well; well left out of calls,128,inactive
Rpe65,-0.83,enough cells in well,264,inactive
